The list shows only some results of the screen, not a fair sample: its compounds were picked by chemical class. Other doses and runs of a compound may be missing. T/C is the treated group as % of the vehicle group. Some entries give survivors of the animals treated and no T/C: the source holds a T/C of zero for them, seemingly a mark for toxic or unscored doses. Some survivor counts are full or nearly so, which does not show that the dose was tolerated: the source hardly ever lists a survival T/C far under the control, and the zero likely stands for such cases as well. Counts of survivors are from the toxicity check (mostly the fifth day) where no day follows; animals may have died later. Schedule codes are those of the source, read here as Q, the interval in days (D) or hours (H), X, the number of doses. Some complexes appear as separate parts, the way the source draws them; their charges need not add up. For survival time, this PubChem deposit counts one and a half times the control or more as active, and values a quarter to a half above the control carry no call in these data; other NCI protocols may use other cut-offs. Some T/C values are followed by the survivors on the day toxicity was checked, most often the fifth; without a count or a note in brackets, all were alive then. Some entries hold several experiments; the values are given in rising order. Some T/C values are marked as having no survivor count here; that says nothing about deaths at the dose.
Test system: P388 leukemia ip, CD2F1 mice, survival T/C
Assay: NCI In Vivo Anticancer Drug Screen. Data for tumor model P388 Leukemia (intraperitoneal) in CD2F1 (CDF1) mice
Details: T/C endpoint: median survival time, higher T/C = longer survival
[1] = dose: 25.0 mg/kg/injection, schedule: Q01DX009 (ip), vehicle: saline
[2] = dose: 50.0 mg/kg/injection, schedule: Q01DX009 (ip), vehicle: saline
[3] = dose: 100.0 mg/kg/injection, schedule: Q01DX009 (ip), vehicle: saline
[4] = dose: 200.0 mg/kg/injection, schedule: Q01DX009 (ip), vehicle: saline
[5] = dose: 12.5 mg/kg/injection, schedule: Q01DX009 (ip), vehicle: saline with Tween-80
[6] = dose: 12.5 mg/kg/injection, schedule: Q01DX009 (ip), vehicle: Klucel (hydroxypropylcellulose) (HPC)
[7] = dose: 25.0 mg/kg/injection, schedule: Q01DX009 (ip), vehicle: Klucel (hydroxypropylcellulose) (HPC)
[8] = dose: 50.0 mg/kg/injection, schedule: Q01DX009 (ip), vehicle: Klucel (hydroxypropylcellulose) (HPC)
[9] = dose: 100.0 mg/kg/injection, schedule: Q01DX009 (ip), vehicle: Klucel (hydroxypropylcellulose) (HPC)
[10] = dose: 100.0 mg/kg/injection, schedule: Q04DX003 (ip), vehicle: Klucel (hydroxypropylcellulose) (HPC)
[11] = dose: 200.0 mg/kg/injection, schedule: Q01DX009 (ip), vehicle: Klucel (hydroxypropylcellulose) (HPC)
[12] = dose: 200.0 mg/kg/injection, schedule: Q04DX003 (ip), vehicle: Klucel (hydroxypropylcellulose) (HPC)
[13] = dose: 400.0 mg/kg/injection, schedule: Q01DX009 (ip), vehicle: Klucel (hydroxypropylcellulose) (HPC)
[14] = dose: 400.0 mg/kg/injection, schedule: Q04DX003 (ip), vehicle: Klucel (hydroxypropylcellulose) (HPC)
[15] = dose: 1.56 mg/kg/injection, schedule: Q01DX009 (ip), vehicle: Klucel (hydroxypropylcellulose) (HPC)
[16] = dose: 3.13 mg/kg/injection, schedule: Q01DX009 (ip), vehicle: Klucel (hydroxypropylcellulose) (HPC)

## O=P(N(CCCl)CCCl)(n1ccnc1)n1ccnc1
[1]
  T/C: 105 % of control
[2]
  T/C: 102 and 130 % of control
[3]
  T/C: 120 and 181 % of control
[4]
  T/C: 112 and 209 % of control
dose: 400.0 mg/kg/injection, schedule: Q01DX009 (ip), vehicle: saline
  survivor count: 6 of 6

## ClCCNc1nc2ccc(Cl)cc2c2ccccc12
dose: 5.0 mg/kg/injection, schedule: Q01DX009 (ip), vehicle: saline sonified
  T/C: 95 % of control
dose: 10.0 mg/kg/injection, schedule: Q01DX009 (ip), vehicle: saline sonified
  T/C: 95 % of control
dose: 20.0 mg/kg/injection, schedule: Q01DX009 (ip), vehicle: saline sonified
  survivor count: 0 of 6
dose: 40.0 mg/kg/injection, schedule: Q01DX009 (ip), vehicle: saline sonified
  survivor count: 0 of 6

## OCCN(CCO)CCO.OCCN(CCO)CCO.[Ni+2].[O-][Cl+3]([O-])([O-])O
dose: 12.5 mg/kg/injection, schedule: Q01DX009 (ip), vehicle: saline
  T/C: 102 % of control
[1]
  T/C: 102 % of control
[2]
  T/C: 93 % of control
  survivor count: 6 of 6
[3]
  survivor count: 0 of 6
[4]
  survivor count: 0 of 6

## O=P(NCCCO)(OCCCl)N(CCCl)CCCl (configuration not stated)
[2]
  T/C: 95 % of control
[3]
  T/C: 90 % of control
dose: 100.0 mg/kg/injection, schedule: Q04DX003 (ip), vehicle: alcohol
  T/C: 104 % of control
[4]
  T/C: 109 % of control
dose: 200.0 mg/kg/injection, schedule: Q04DX003 (ip), vehicle: alcohol
  T/C: 113 % of control
dose: 400.0 mg/kg/injection, schedule: Q04DX003 (ip), vehicle: alcohol
  T/C: 131 % of control

## ClCCN(CCCl)c1cccc(CN2CCCC2)c1.O=[N+]([O-])c1cc([N+](=O)[O-])c(O)c([N+](=O)[O-])c1
[5]
  T/C: 92 % of control [survivor count not shown]
dose: 25.0 mg/kg/injection, schedule: Q01DX009 (ip), vehicle: saline with Tween-80
  T/C: 88 % of control [survivor count not shown]
dose: 50.0 mg/kg/injection, schedule: Q01DX009 (ip), vehicle: saline with Tween-80
  T/C: 126 % of control [survivor count not shown]
dose: 100.0 mg/kg/injection, schedule: Q01DX009 (ip), vehicle: saline with Tween-80
  T/C: 153 % of control [survivor count not shown]

## ClP1(Cl)=NP(Cl)(Cl)=NP(Cl)(Cl)=NP(Cl)(Cl)=N1
[6]
  T/C: 102 and 106 % of control
[7]
  T/C: 92, 94, 111 % of control
[8]
  T/C: 94, 100 [5 of 6 alive], 103 % of control
[9]
  T/C: 88, 93, 102 % of control
[10]
  T/C: 117 and 120 % of control
[11]
  T/C: 103 and 111 % of control
  survivor count: 6 of 6
[12]
  T/C: 122 and 126 % of control
[13]
  T/C: 103 and 115 % of control
  survivor count: 5 of 6
[14]
  T/C: 126 and 128 % of control

## BrCCN(CCBr)c1cccc2ccccc12
dose: 0.39 mg/kg/injection, schedule: Q01DX009 (ip), vehicle: Klucel (hydroxypropylcellulose) (HPC)
  T/C: 127 % of control
dose: 0.78 mg/kg/injection, schedule: Q01DX009 (ip), vehicle: Klucel (hydroxypropylcellulose) (HPC)
  T/C: 144 and 176 % of control
[15]
  T/C: 152 % of control
  survivor count: 0 of 6
[16]
  T/C: 186 % of control
  survivor count: 6 of 6
dose: 6.25 mg/kg/injection, schedule: Q01DX009 (ip), vehicle: Klucel (hydroxypropylcellulose) (HPC)
  T/C: 100 % of control
[6]
  survivor count: 6 of 6
[7]
  survivor count: 2 of 6
[8]
  survivor count: 6 of 6
[9]
  survivor count: 4 of 6
[11]
  survivor count: 0 of 6

## CC(C)OP(C)(=O)O.[U]
dose: 6.25 mg/kg/injection, schedule: Q01DX009 (ip), vehicle: saline with Tween-80
  T/C: 108 % of control [survivor count not shown]
[5]
  T/C: 100 % of control [survivor count not shown]

## O=C1/C(=C\N(CCCl)CCCl)C2CCC1C2 (configuration not stated)
[10]
  T/C: 103 and 116 % of control
[12]
  T/C: 100 and 129 % of control [5 of 6 alive]
[14]
  T/C: 108 and 153 % of control [5 of 6 alive]

## CCN(CCCl)/N=N/c1nc2nc[nH]c(=O)c2[nH]1
dose: 50.0 mg/kg/injection, schedule: Q01DX005 (ip), vehicle: Klucel (hydroxypropylcellulose) (HPC)
  T/C: 100 % of control
dose: 100.0 mg/kg/injection, schedule: Q01DX005 (ip), vehicle: Klucel (hydroxypropylcellulose) (HPC)
  T/C: 108 % of control
dose: 200.0 mg/kg/injection, schedule: Q01DX005 (ip), vehicle: Klucel (hydroxypropylcellulose) (HPC)
  T/C: 105 % of control

## CC(N)(Cc1ccc(N(CCCl)CCCl)cc1)C(=O)O (configuration not stated)
dose: 5.0 mg/kg/injection, schedule: Q04DX003 (ip), vehicle: other
  T/C: 193 % of control
dose: 5.0 mg/kg/injection, schedule: Q04DX003 (ip), vehicle: water
  T/C: 160 % of control
dose: 10.0 mg/kg/injection, schedule: Q04DX003 (ip), vehicle: other
  T/C: 198 % of control
dose: 10.0 mg/kg/injection, schedule: Q04DX003 (ip), vehicle: water
  T/C: 169 % of control
dose: 20.0 mg/kg/injection, schedule: Q04DX003 (ip), vehicle: other
  T/C: 280 % of control
dose: 20.0 mg/kg/injection, schedule: Q04DX003 (ip), vehicle: water
  T/C: 221 % of control
dose: 40.0 mg/kg/injection, schedule: Q04DX003 (ip), vehicle: other
  T/C: 318 % of control
dose: 40.0 mg/kg/injection, schedule: Q04DX003 (ip), vehicle: water
  T/C: 292 % of control
dose: 80.0 mg/kg/injection, schedule: Q04DX003 (ip), vehicle: water
  T/C: 91 % of control

## COP(OC)c1ccccc1P(OC)OC
dose: 60.0 mg/kg/injection, schedule: Q01DX005 (ip), vehicle: saline
  T/C: 101 % of control
dose: 120.0 mg/kg/injection, schedule: Q01DX005 (ip), vehicle: saline
  T/C: 119 % of control
dose: 240.0 mg/kg/injection, schedule: Q01DX005 (ip), vehicle: saline
  T/C: 105 % of control

## O=C(CCSCCCl)Nc1ccc(P(=O)(O)O)cc1
dose: 3.13 mg/kg/injection, schedule: Q04DX003 (ip), vehicle: DMSO
  T/C: 94 % of control
dose: 6.25 mg/kg/injection, schedule: Q04DX003 (ip), vehicle: DMSO
  T/C: 96 % of control
dose: 12.5 mg/kg/injection, schedule: Q04DX003 (ip), vehicle: DMSO
  T/C: 104 % of control
dose: 25.0 mg/kg/injection, schedule: Q04DX003 (ip), vehicle: DMSO
  T/C: 101 % of control
dose: 50.0 mg/kg/injection, schedule: Q04DX003 (ip), vehicle: DMSO, evaluated on day 30
  T/C: 104 % of control
dose: 50.0 mg/kg/injection, schedule: Q04DX003 (ip), vehicle: DMSO, evaluated on day 45
  T/C: 120 % of control
dose: 100.0 mg/kg/injection, schedule: Q04DX003 (ip), vehicle: DMSO
  T/C: 98 % of control
dose: 200.0 mg/kg/injection, schedule: Q04DX003 (ip), vehicle: DMSO
  T/C: 118 % of control

## CCOP(=O)(O)CC.[Ti]
[9]
  T/C: 95 % of control [survivor count not shown]
[11]
  T/C: 94 % of control [survivor count not shown]
[13]
  T/C: 91 % of control [survivor count not shown]

## CC1(C)C2CCC(C2)C1(Cl)CSC(=O)SC(Cl)C(Cl)Cl (configuration not stated)
[2]
  T/C: 92 % of control
[3]
  T/C: 100 % of control
[4]
  T/C: 99 % of control

Reference: PubChem BioAssay AID330 (DTP/NCI, 2004)
